This test has as its target T1, 2-Cys Prx (2-Cys peroxiredoxin, 2-Cys PrxA, At3g11630), endogenous in Arabidopsis plants (Arabidopsis thaliana) (UniProt Q96291).
T1 sequence (looked up): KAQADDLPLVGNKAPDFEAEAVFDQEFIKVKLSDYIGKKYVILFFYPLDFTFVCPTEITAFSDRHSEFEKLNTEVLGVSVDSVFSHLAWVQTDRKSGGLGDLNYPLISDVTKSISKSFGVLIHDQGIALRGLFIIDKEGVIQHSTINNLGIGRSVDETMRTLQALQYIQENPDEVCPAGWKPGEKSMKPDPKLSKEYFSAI
Put plainly: in planta trapped intermolecular disulfide reaction intermediates; non-reducing SDS-PAGE, anti-HA immunoblot.

These are yes or no findings as the source states them, for the method shown. Some binding calls cover weakened binding; strength is not graded here. Where a sequence is shown, tags or fusion partners need not be part of it.

B1: ACHT4ΔC (Arabidopsis ACHT4 lacking the 47-amino acid C-terminus), fused to the HA3 affinity tag (enzyme, not shown: small tags and cut ends)
chain: SSAITAQTTLRIGTAQKWWEKGLKDNMREISSAQELVDSLTNAGDKLVVVDFFSPGCGGCKALHPKICQFAEMNPDVQFLQVNYEEHKSMCYSLGVHVLPFFRFYRGSQGRVCSFSCTNATIKKFRDALAKHGPDRCSLGPTKGLEEKELVALAAN
notes: also called AtACHT4ΔC; AtACHT4-C-Del
Take B1: the binding entry is “binds”.

The values are drawn from patent US20190119696A1 (YEDA RESEARCH AND DEVELOPMENT, published 2019).
